Measured values from paper doi:10.1101/521658.

How the values were obtained:
CaM of the CaM matrix [1] = assay: affinity purification with mass spectrometry
CaM of the CaM matrix [2] = assay: condition: only with an excess of the Ca2+ chelator EGTA

B1: NADKc-1 (NAD+ kinase CaM-1), product of the At1g04280 gene, endogenous in A. thaliana seedlings (enzyme, UniProt Q0WUY1 1-534)
chain: MVKPLGEGTRDVSNVGCKSVDLLLASLGGLAAAVAAAYAGELLLRRRKLDQGASMGYKDVKIAPLIERKDSGRRSNLERFSHYVARQLGFEDPNEYPQLCKLANGYLLKTKGYDENVDEYLENEAERDSLYVHLLEEFDRCILTYFSFNWTQSSNLISQALSDESDQKVPKLKDFVMAATRKQRFERVTKDLKVKRVISTLVEEMRVIGSGSSEPHCTEVMSPVAHNKRSPVLLLMGGGMGAGKSTVLKDIFLESFWSEAQADAVVIEADAFKETDVIYRALSSRGHHDDMLQTAELVHQSSTDAASSLLVTALNDGRDVIMDGTLSWEPFVEQMIEMARNVHKQKYRMGEGYKVSEEGTITEKYWEEEEEETKENGKQQNLKPYRIELVGVVCDAYLAVARGIRRALMVKRAVRVKPQLNSHKRFANAFPKYCELVDNARLYCTNAVGGPPRLIAWKDGNSKLLVDPEDIDCLKRVSSLNPDAESIYELYPDPSQLSKPGSVWNDVVLVPSRPKVQKELSDAIRRIEKAQPKN
binding (CaM of the CaM matrix [1]): binds
binding (CaM of the CaM matrix [2]): no binding

Results are given in words; binding and its absence hold for the method and conditions named. In cells and extracts the contact can be indirect. Here binding means that the protein was enriched with, or labelled near, the bait; the list need not be complete. For some assays here: A no says only that the protein was not detected with the bait.
